Results on 36 compounds are retold here after PubChem BioAssay AID2685 (National Center for Advancing Translational Sciences (NCATS), 2010).

This is one part of the list. Further columns of the screen follow, without active or inactive calls. The list favours compounds with an active or inconclusive main result. The note in brackets gives the kind of curve behind each potency; many fits are weak.

This experiment in a line: qHTS Assay for Lipid Storage Modulators in Drosophila S3 Cells.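 On cell number change: cells counted by Cell Tracker Red CMTPX staining in the red channel.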 The conditions noted are these: BODIPY lipid droplet fluorescence, 18-24 h; for cell number change: measured here: cell count max response, cells fed with added oleic acid. In a few lines:
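Drosophila S3 cells loaded with oleic acid (400 uM, as added) and compounds at several concentrations; lipid droplets imaged by 488-nm laser-scanning cytometry, 500–530 nm intensity and object ratio to cell channel. Percent activity normalized to 20 uM Triacsin C.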
On the technique in general: qHTS replaces the single test concentration by a dilution series.

Where [1] appears, read: measured here: lipid fluorescence (Fed channel) AC50, cells fed with added oleic acid.
Where [2] appears, read: measured here: cell number channel AC50, cells fed with added oleic acid.

For `Nc1nc(NC(=O)c2cccnc2)nn1-c1ccccc1`, the cell number change is -10.8%. Further, the concentration at half-maximal activity (AC50) under setting [1] was 16.4 µM [rising, single point]. As for `Nc1c(C(=O)CSc2nc(-c3ccccc3)cs2)c(=O)[nH]c(=O)n1C1CC1`, the cell number change is -14.7%. Moreover, the half-maximal activity concentration (AC50) under setting [1] is 29.1 µM [rising, single point]. As to `CC(C(=O)N1CCC(C(N)=O)CC1)N(c1ccc(Oc2ccccc2)cc1)S(C)(=O)=O` (stereo not given), the cell number change was 42.7%. Further, the AC50 under setting [2] is 29.1 µM [rising, single point]. Also, the concentration at half-maximal activity (AC50) under setting [1] was 0.58 µM [falling, single point].

In the case of `O=C(Nc1nncs1)C1(c2ccccc2)CCCC1`, the cell number change worked out at 1.81%. Further, the AC50 under setting [2] was 0.00461 µM [falling, full curve, poor fit]. Besides, the AC50 under setting [1] was 0.0206 µM [falling, full curve, poor fit]. For `CC(C)Nc1nc(NC(C)C)nc(C(=O)OCCO)n1`, the cell number change worked out at 6.29%. Take `CCCc1oc(C(=O)O)cc1CN1CCCC1`: the AC50 under setting [2] is 6.51 µM [falling, single point] and the AC50 under setting [1] was 5.8 µM [falling, full curve].

As to `COCCNC(=O)c1onc(CS(=O)(=O)c2cc(C)cc(C)c2)c1C(=O)NCCOC`, the cell number change stood at 13.7%. The concentration at half-maximal activity (AC50) under setting [1] is 5.17 µM [rising, full curve, poor fit].

For `Oc1ccc(N=C/C=C/c2cccc(Br)c2)cc1-c1nc2ccccc2s1`, the cell number change is -13.6%. For the same compound, the AC50 under setting [1] is 29.1 µM [falling, single point]. With `COc1ccc(-c2nn(-c3ccccc3)cc2C(=O)Nc2nc(CC(C)=O)ns2)cc1`, the cell number change was -50.6%. For the same compound, under setting [2], the AC50 was 9.2 µM [falling, partial curve].

On to `CCCCCCCNC(=O)C1(CC2CC(c3cccc(Br)c3)=NO2)CCN(C(=O)CCCCCBr)CC1` (stereo not given), for which the cell number change was -74.1%. The AC50 under setting [2] is 20.6 µM [falling, single point]. Turning to `CCCCN(C)C(=O)c1oc2ccc(S(=O)(=O)N3CCCCCC3)cc2c1C`, the cell number change was -3.07%. Further, the concentration at half-maximal activity (AC50) under setting [1] is 29.1 µM [falling, single point]. As to `C=CCN1C(=O)CSc2ccc(C(=O)OCC)cc21`, the cell number change is -24.3%. Further, under setting [1], the AC50 was 32.6 µM [falling, single point]. For `Cc1ccc(NC(=O)COC(=O)c2c(-c3ccccc3)noc2C)cc1`, the cell number change came out at 28.4%. Moreover, the concentration at half-maximal activity (AC50) under setting [1] is 29.1 µM [falling, single point].

As for `CCOC(=O)c1c(C)[nH]c(C)c1S(=O)(=O)N1CCN(c2cccc(C)c2)C(C)C1` (stereo not given), the cell number change was -13.1%. In addition, the AC50 under setting [1] is 0.58 µM [falling, single point].

For `CC(=O)c1ccc(NC(=O)Oc2ccccc2)cc1`, the cell number change was -73.6%. In addition, the half-maximal activity concentration (AC50) under setting [2] is 23.1 µM [falling, partial curve, poor fit].

Turning to `O=C(CN1CCc2ccccc2C1)Nc1ccc(Br)cc1`, the cell number change came to 69.9%. Besides, under setting [1], the AC50 was 6.51 µM [falling, single point].

As for `Cc1ccccc1CCN1CCCC(CN(C)C(=O)c2ccc3ncccc3c2)C1` (stereo not given), the cell number change worked out at 6.04%. As for `O=C(OC[C@H]1O[C@@H](OC(=O)c2cc(O)c(O)c(OC(=O)c3cc(O)c(O)c(O)c3)c2)[C@H](OC(=O)c2cc(O)c(O)c(OC(=O)c3cc(O)c(O)c(O)c3)c2)[C@@H](OC(=O)c2cc(O)c(O)c(OC(=O)c3cc(O)c(O)c(O)c3)c2)[C@@H]1OC(=O)c1cc(O)c(O)c(OC(=O)c2cc(O)c(O)c(O)c2)c1)c1cc(O)c(O)c(OC(=O)c2cc(O)c(O)c(O)c2)c1`, the cell number change amounted to 1.01%. Moreover, under setting [1], the half-maximal activity concentration (AC50) is 29.1 µM [rising, single point]. On to `COc1ccc(CN2CCC(N(CCc3ccccc3)Cc3ccccc3)CC2)c(OC)c1`, for which the cell number change was -46%. The AC50 under setting [2] is 29.1 µM [falling, single point]. The concentration at half-maximal activity (AC50) under setting [1] is 29.1 µM [falling, single point].

On to `C=CCN(C(=O)c1csnn1)C(C(=O)NC1CCCCC1)c1ccccc1` (stereo not given), for which the cell number change was -13.3%. Moreover, the AC50 under setting [2] was 5.17 µM [rising, single point]. The concentration at half-maximal activity (AC50) under setting [1] is 6.51 µM [falling, single point]. For `O=S(=O)(c1ccccc1)C1(S(=O)(=O)c2ccccc2)CCCC1`, the cell number change was found to be 10.1%. Under setting [1], the AC50 is 6.51 µM [falling, single point]. For `CCn1cc(C(=O)NCCc2ccc(Cl)cc2)c(=O)c2ccc(C)nc21`, the cell number change is -8.33%. Further, under setting [1], the AC50 was 2.91 µM [rising, single point]. Regarding `CC1CCCCC12NC(=O)N(CC(=O)NCCc1ccc(F)cc1)C2=O` (stereo not given), the cell number change was -6.06%. The AC50 under setting [1] is 13 µM [rising, partial curve]. Consider `COc1cccc(N2CCN(CC(=O)Nc3ccc(S(=O)(=O)N4CCCCCC4)cc3)CC2)c1`, for which the cell number change was 9%. Under setting [2], the concentration at half-maximal activity (AC50) was 0.116 µM [falling, full curve, poor fit]. Moreover, the half-maximal activity concentration (AC50) under setting [1] was 20.6 µM [falling, partial curve]. With `CCC(Sc1n[nH]c(=O)[nH]c1=O)C(=O)OCc1ccccc1` (stereo not given), the cell number change was 23.9%. Also, the AC50 under setting [1] was 29.1 µM [rising, partial curve, poor fit]. As to `COc1cc(OC)cc(C(=O)N[C@H](C(=O)OCC(=O)c2ccc3c(c2)NC(=O)CO3)C(C)C)c1`, the cell number change is -5.44%. In the case of `COc1ccc(C)cc1NC(=O)C/C(C)=N/NC(=O)Cc1cccc2ccccc12`, the cell number change is 7.69%. Further, the AC50 under setting [2] was 0.731 µM [rising, partial curve, poor fit].

`O=C(CN1CCC(C(=O)c2ccc3c(c2)OCCO3)CC1)NCc1ccc(F)cc1`: the cell number change amounted to 8.55%. For the same compound, the AC50 under setting [1] is 6.51 µM [rising, single point].

As for `O=C(NC1CCCCNC1=O)c1ccc(Cl)cc1` (stereo not given), the cell number change was -16.2%. As to `FC(F)(F)c1ccc(N2CCOCC2)c(Nc2nc3ccccc3n3cnnc23)c1`, the cell number change was -42.4%. Also, the AC50 under setting [2] was 29.1 µM [falling, single point]. Take `Cc1ccc(NN=C2c3ccccc3-c3ccccc32)cc1`: the cell number change is -12.5%. Also, the concentration at half-maximal activity (AC50) under setting [1] is 3.66 µM [rising, single point].

For `CCCCn1c(N)c(N(CCOC)C(=O)CN2C(=O)c3ccccc3C2=O)c(=O)[nH]c1=O`, the cell number change turned out to be 7.93%. For `CCOC(=O)C1(CC/C(C)=N\NC(N)=O)CC(C)(C)OC1=O` (stereo not given), the cell number change was -0.905%. The concentration at half-maximal activity (AC50) under setting [1] is 0.00461 µM [falling, full curve]. As for `CSc1nc2sc3c(c2c(=O)[nH]1)CCC3`, under setting [1], the AC50 is 7.31 µM [rising, partial curve, poor fit]. Take `CC1CN(C(=O)c2ccc(COc3ccccc3Cl)o2)CC(C)O1` (stereo not given): the cell number change amounted to 8.7%. With `Cc1nn(Cc2ccc(C(=O)Nc3ccccc3C(F)(F)F)o2)c(C)c1Br`, the cell number change was -8.71%. The AC50 under setting [1] is 29.1 µM [falling, single point].

For orientation: AC50 means the concentration at which the activity in the assay is half-maximal. The low end stands for activity at low concentration, the high end for activity only at high concentration.
